Paper PMC10575931
Results are given in words; binding and its absence hold for the method and conditions named. Binding seen in cells or lysates may run through a third protein. Here binding means that the protein was enriched with, or labelled near, the bait; the list need not be complete.

Amino acid sequences for entries named in this document (tags omitted).
UniProt Q8TD16: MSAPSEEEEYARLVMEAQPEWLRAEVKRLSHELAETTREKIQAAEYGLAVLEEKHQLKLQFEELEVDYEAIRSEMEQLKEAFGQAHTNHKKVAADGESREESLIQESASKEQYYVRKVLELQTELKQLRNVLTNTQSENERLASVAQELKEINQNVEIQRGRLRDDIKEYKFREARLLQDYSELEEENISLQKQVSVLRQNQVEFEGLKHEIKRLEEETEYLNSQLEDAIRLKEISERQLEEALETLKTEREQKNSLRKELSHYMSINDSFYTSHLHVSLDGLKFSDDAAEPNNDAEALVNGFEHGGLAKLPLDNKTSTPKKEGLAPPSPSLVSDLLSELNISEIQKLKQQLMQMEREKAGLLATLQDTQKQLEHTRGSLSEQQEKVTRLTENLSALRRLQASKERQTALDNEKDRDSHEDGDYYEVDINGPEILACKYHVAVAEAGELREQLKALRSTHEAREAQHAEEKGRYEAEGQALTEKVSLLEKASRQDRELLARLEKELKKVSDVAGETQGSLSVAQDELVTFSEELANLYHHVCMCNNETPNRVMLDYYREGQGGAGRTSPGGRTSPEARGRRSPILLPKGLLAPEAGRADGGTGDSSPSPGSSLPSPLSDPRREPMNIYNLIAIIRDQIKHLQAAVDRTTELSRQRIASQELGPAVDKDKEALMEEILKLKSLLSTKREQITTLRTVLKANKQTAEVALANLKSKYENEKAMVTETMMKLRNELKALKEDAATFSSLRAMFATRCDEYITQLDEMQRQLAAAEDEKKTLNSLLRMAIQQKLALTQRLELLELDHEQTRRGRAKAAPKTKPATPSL
UniProt O00571: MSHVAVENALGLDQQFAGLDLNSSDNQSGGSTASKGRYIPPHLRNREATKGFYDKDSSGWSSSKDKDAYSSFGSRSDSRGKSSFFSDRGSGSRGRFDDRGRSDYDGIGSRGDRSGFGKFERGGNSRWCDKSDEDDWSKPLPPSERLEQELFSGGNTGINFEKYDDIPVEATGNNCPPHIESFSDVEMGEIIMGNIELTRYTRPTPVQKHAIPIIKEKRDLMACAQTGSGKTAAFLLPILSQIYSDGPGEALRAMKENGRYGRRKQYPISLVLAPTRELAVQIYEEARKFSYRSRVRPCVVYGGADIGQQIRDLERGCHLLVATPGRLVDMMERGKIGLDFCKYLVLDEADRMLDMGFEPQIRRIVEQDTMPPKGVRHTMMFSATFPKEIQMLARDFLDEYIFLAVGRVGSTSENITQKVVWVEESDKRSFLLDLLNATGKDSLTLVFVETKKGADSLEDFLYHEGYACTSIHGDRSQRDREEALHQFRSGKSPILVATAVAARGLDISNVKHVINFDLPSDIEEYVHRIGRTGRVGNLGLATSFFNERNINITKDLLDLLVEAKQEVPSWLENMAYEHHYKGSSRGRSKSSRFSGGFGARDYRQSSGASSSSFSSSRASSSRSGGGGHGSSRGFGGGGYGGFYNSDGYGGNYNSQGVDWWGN
UniProt O75821: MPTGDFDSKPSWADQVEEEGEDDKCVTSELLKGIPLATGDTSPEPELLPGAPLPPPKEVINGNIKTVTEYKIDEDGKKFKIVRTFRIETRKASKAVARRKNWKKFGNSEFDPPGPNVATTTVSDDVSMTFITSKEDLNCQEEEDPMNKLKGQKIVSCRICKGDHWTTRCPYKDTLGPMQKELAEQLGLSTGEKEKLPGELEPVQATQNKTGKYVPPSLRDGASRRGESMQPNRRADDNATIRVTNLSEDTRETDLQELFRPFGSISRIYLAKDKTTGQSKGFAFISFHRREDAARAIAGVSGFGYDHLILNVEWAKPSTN
UniProt P42224: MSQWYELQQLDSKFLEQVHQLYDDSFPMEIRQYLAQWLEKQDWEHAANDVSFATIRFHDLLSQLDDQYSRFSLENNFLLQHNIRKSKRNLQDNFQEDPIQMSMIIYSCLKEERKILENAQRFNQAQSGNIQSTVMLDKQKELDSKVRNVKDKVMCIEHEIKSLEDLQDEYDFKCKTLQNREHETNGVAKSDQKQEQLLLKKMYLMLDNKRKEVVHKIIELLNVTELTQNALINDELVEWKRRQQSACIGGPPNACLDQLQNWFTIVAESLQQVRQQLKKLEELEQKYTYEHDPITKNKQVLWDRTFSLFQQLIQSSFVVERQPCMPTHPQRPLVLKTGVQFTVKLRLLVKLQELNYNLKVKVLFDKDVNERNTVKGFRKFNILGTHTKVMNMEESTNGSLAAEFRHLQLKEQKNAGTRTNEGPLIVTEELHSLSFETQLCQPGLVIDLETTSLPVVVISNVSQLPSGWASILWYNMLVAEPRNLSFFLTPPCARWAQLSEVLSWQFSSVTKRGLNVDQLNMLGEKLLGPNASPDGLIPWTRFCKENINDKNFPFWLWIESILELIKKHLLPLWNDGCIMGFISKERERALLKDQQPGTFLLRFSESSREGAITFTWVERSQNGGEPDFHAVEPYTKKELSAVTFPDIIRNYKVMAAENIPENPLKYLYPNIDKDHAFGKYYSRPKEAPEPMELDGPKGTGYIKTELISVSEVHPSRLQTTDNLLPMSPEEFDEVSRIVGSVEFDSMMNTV

Each substance was assayed against FLAG-tagged BICD2, full length (UniProt Q8TD16) (assay: affinity purification with mass spectrometry; HEK293T transfected with mock or FLAG-tagged BICD2; co-immunoprecipitation lysis buffer; anti-FLAG M2 beads at 4 °C overnight; eluted with 3×FLAG peptide; silver-stained gel segments analysed by mass spectrometry).

Q: “DDX3X, endogenous (from UniProt O00571 1-662)” was tested. Which binding did it give?
A: Its binding is “binds”.

Q: For “EIF3G, endogenous (from UniProt O75821 1-320)”, which binding is on record?
A: The binding was “binds”.

Q: With “STAT1, endogenous (from UniProt P42224 1-750)” as the substance, how does the binding read?
A: Its binding is “binds”.
